Assay results from PubChem BioAssay AID504444 (National Center for Advancing Translational Sciences (NCATS), 2011).
Screen size: about 360,000 compounds; about 7,500 (2.1%) were called active. The shares of active, inactive and inconclusive entries below differ from those in the screen. Calls come from the whole dose curve; as a rule, active = well fitted inhibition curve with a large enough effect; inconclusive = small, poorly fitted or top-dose-only effect, or effect the other way; inactive = flat fitted curve, though single readings scatter. Where the call is inconclusive, the potency comes from a doubtful curve fit.

Test: Nrf2 qHTS screen for inhibitors; note: nearly all actives have a fitted effect of over 60% in size
Details: A549 ARE-Fluc reporter, luciferase luminescence, 18-24 h; activity change, negative = inhibition: at 46 µM (top of the series)
Summary of the method: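 Concentration-response testing used A549 ARE_Fluc cells at 5000 cells/well. Following an 18-24 h compound incubation, viability was read by fluorescence (Ex 405/Em 525) and luciferase output by luminescence.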
% is set by controls: 0 for no effect and ±100 for the full control effect; potency is the fitted concentration of half-maximal effect.

Which Potency does the source give for `O=C(Oc1ccc(Cl)c(Cl)c1)C1=CC=CN2CCS(=O)(=O)N=C12` here?
Its Potency is “inactive”.

With `CC(C)(CNc1ccc(S(=O)(=O)C(F)(F)F)cc1[N+](=O)[O-])N1CCOCC1` as the compound, how does the Potency read?
Its Potency is active: 23.1 µM.

For `Cn1cccc1C(=O)OCC(=O)c1c[nH]c2ccccc12`, which Potency is on record?
Its Potency is inconclusive: 9.2 µM [activator, partial curve].

With `CCOC(=O)c1cnc2ccc(C(=O)OC)cc2c1Nc1ccc(OCc2ccccc2Cl)cc1` as the compound, how does the Potency read?
Its Potency is “inactive”.

With `Cc1ccccc1NC(=O)CSc1ccc(-c2ccccn2)nn1` as the compound, how does the Potency read?
Its Potency is inconclusive: 20.6 µM [falling, single point].

Which Potency does the source give for `CCS(=O)(=O)c1nc(S(=O)(=O)c2ccc(Cl)cc2)c(N2CCN(C)CC2)s1` here?
The Potency was inconclusive: 0.184 µM [falling, partial curve, poor fit].

With `O=C(COC(=O)c1c2c(nc3ccccc13)/C(=C\c1cccs1)CCC2)Nc1ccccc1` as the compound, how does the Potency read?
Its Potency is inconclusive: 18.4 µM [falling, single point].

Which Potency does the source give for `COc1ccccc1NC(=O)C(=O)NCc1ccncc1` here?
Its Potency is inconclusive: 23.1 µM [activator, single point].

With `CN(C)c1ccc(C(=O)N=c2sccn2C)cc1[N+](=O)[O-]` as the compound, how does the Potency read?
The Potency was inconclusive: 4.11 µM [activator, full curve].

For `O=C(Nc1nc2ccccc2[nH]1)c1cccc(F)c1`, which Potency is on record?
Its Potency is inconclusive: 4.11 µM [activator, full curve].

For `CCc1nc(NCc2ccco2)c2oc3ccccc3c2n1`, which Potency is on record?
The Potency was “inactive”.

For `CC(=O)N1N=C(c2cccc([N+](=O)[O-])c2)OC1c1cccc(Br)c1` (stereo not given), which Potency is on record?
The Potency was inconclusive: 20.6 µM [activator, partial curve, poor fit].

For `Cn1c(=O)c2cc(S(=O)(=O)NCCC(=O)N3CC=C(c4ccccc4)CC3)ccc2n(C)c1=O`, which Potency is on record?
The Potency was active: 14.6 µM.

With `CC(C)CCN=CC1=C(O)CC(c2ccccc2)CC1=O` (stereo not given) as the compound, how does the Potency read?
Its Potency is inconclusive: 5.8 µM [activator, full curve].

For `COc1cc(/C=C(/C#N)c2nc3ccccc3[nH]2)ccc1OCC(=O)Nc1ccccc1C(C)C`, which Potency is on record?
The Potency was inconclusive: 4.11 µM [falling, full curve, poor fit].

Which Potency does the source give for `Cc1ccc(C(=O)NC2CCCCC2)cc1` here?
Its Potency is inconclusive: 2.59 µM [activator, full curve].

With `COCCSc1nc(N)c2c3c(sc2n1)CN(C)CC3` as the compound, how does the Potency read?
The Potency was inconclusive: 3.66 µM [activator, full curve].

For `Cc1ccn2c(Nc3ccccc3)c(-c3c[nH]c4ccccc34)nc2c1`, which Potency is on record?
The Potency was “inactive”.

Which Potency does the source give for `Cc1c(CN(C)C)c2c(n1Cc1ccccc1)C(=O)c1ccc(Br)cc1-2` here?
The Potency was “inactive”.

With `COCCN1C(=O)C(O)=C(C(C)=O)C1c1ccc(OC)c(OC)c1` (stereo not given) as the compound, how does the Potency read?
Its Potency is inconclusive: 29.1 µM [activator, single point].

For `Nc1ncc(Br)cc1S(=O)(=O)Nc1cc(C(F)(F)F)cc(C(F)(F)F)c1`, which Potency is on record?
Its Potency is inconclusive: 18.4 µM [falling, single point].

For `O=C(NN=C(c1ccccc1)c1ccccn1)c1ccccc1`, which Potency is on record?
Its Potency is active: 5.17 µM.

With `Cn1c2ccccc2c2ncn(CCN3CCOCC3)c(=O)c21` as the compound, how does the Potency read?
Its Potency is inconclusive: 1.84 µM [activator, partial curve].

With `CC1CCN(C(=O)C(=O)Nc2sc3c(c2C(N)=O)CC(C)(C)OC3)CC1` as the compound, how does the Potency read?
Its Potency is “inactive”.

Which Potency does the source give for `Cc1nc2ccc(S(=O)(=O)NC(C(=O)Nc3nccs3)C(C)C)cc2s1` (stereo not given) here?
The Potency was inconclusive: 25.9 µM [activator, single point].

For `CC(C)(CO)NCc1ccccc1OCC(=O)Nc1ccccc1`, which Potency is on record?
Its Potency is “inactive”.

With `COC(=O)Cc1ccc(NC(=S)Nc2ccccn2)cc1` as the compound, how does the Potency read?
The Potency was inconclusive: 25.9 µM [activator, single point].

With `COc1ccc(C)cc1NC(=O)N(C(C)C)C1CCN(C(C)=O)CC1` as the compound, how does the Potency read?
Its Potency is “inactive”.

With `O=C(NCCn1cc(SCc2ccccc2)c2ccccc21)c1c(F)cccc1F` as the compound, how does the Potency read?
Its Potency is inconclusive: 29.1 µM [falling, single point].

Which Potency does the source give for `CN(C)S(=O)(=O)c1cccc(C(=O)Nc2cc(S(=O)(=O)N3CCOCC3)ccc2N2CCCC2)c1` here?
The Potency was “inactive”.

Which Potency does the source give for `Cc1ccc(-c2nnc3ccccc3c2C(=O)Nc2ccc(F)cc2)cc1` here?
Its Potency is inconclusive: 18.4 µM [falling, single point].

Which Potency does the source give for `O=C(O)c1cc(-c2ccccc2)nn1Cc1ccccc1` here?
Its Potency is inconclusive: 32.6 µM [falling, single point].

For `Cc1ccccc1-n1c(C)nnc1SCc1nc2ccccc2s1`, which Potency is on record?
The Potency was inconclusive: 9.2 µM [activator, partial curve, poor fit].

For `Cc1cccc(N2C(=O)C(O)=C(C(=O)c3cccs3)C2c2ccc(Cl)cc2)n1` (stereo not given), which Potency is on record?
The Potency was inconclusive: 29.1 µM [falling, single point].

For `COc1ccccc1Nc1nn2c(=O)c3ccc(C(=O)NCCc4ccccc4)cc3nc2s1`, which Potency is on record?
The Potency was active: 18.4 µM.

With `Cc1ccc(N2CCN(c3nc4ccc(C(=O)c5ccccc5)cc4n4cnnc34)CC2)c(C)c1` as the compound, how does the Potency read?
The Potency was “inactive”.

Which Potency does the source give for `O=C(Nc1ccn(Cc2c(F)c(F)cc(F)c2F)n1)c1ccc(COc2ccccc2Cl)cc1` here?
The Potency was active: 20.6 µM.

With `O=C(O)C(S)C(S)C(=O)O` (stereo not given) as the compound, how does the Potency read?
The Potency was inconclusive: 0.0041 µM [falling, full curve, poor fit].

For `Cc1ccc(-n2c(=O)c3c(cnn3C)n(CC(=O)Nc3cccc(Cl)c3)c2=O)cc1`, which activity change, negative = inhibition is on record?
Its activity change, negative = inhibition is inactive: -0.413% [at 9.27 µM].

Which Potency does the source give for `Cc1nc(N)nc(N)c1Oc1ccc(Cl)cc1` here?
The Potency was inconclusive: 23.1 µM [falling, single point].

Which Potency does the source give for `CCOc1ccccc1NC(=O)CN1C(=O)CC(c2ccc(C)c(C)c2)=Nc2ccccc21` here?
Its Potency is inconclusive: 20.6 µM [activator, partial curve, poor fit].

For `CCC(C(=O)NCCc1ccc(OC)c(OC)c1OC)n1nc(C)c2sc3ccccc3c2c1=O` (stereo not given), which Potency is on record?
The Potency was inconclusive: 23.1 µM [falling, single point].

For `Cc1nn(-c2ccccc2)c(Cl)c1C(=O)OC(C)C(=O)NC(=O)NC1CCCCC1` (stereo not given), which Potency is on record?
Its Potency is inconclusive: 12.6 µM [falling, partial curve, poor fit].

For `O=S1(=O)N=C(Oc2ccc(C(F)(F)F)cc2)c2ccccc21`, which Potency is on record?
The Potency was “inactive”.

For `O=C(NN1C(=O)c2cc(Br)ccc2NC1c1cc(Br)cc(Br)c1O)c1ccncc1` (stereo not given), which Potency is on record?
Its Potency is “inactive”.
